In patent US20050187175A1 (published 2005):
These are yes or no findings as the source states them, for the method shown. For part of these data: Binding seen in cells or lysates may run through a third protein. Some entries that bind do so weakly or less than the wild type. For part of these data: Sequences can lack the tags named with a protein.

T1: CPG15 (UniProt Q8CFV4)
T1 sequence (looked up): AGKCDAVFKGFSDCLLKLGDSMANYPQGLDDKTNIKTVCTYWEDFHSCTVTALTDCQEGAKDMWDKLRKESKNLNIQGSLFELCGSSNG

T2: FLAG-tagged CPG15 (UniProt Q8CFV4)
T2 sequence (glycosylated; GPI-anchored form on cells (as the filing reports), looked up): T1 sequence (looked up)

B1: CPG15-2 (other)
chain: SEGPNRCDTIYQGFAECLIRLGDGMGRGGELQTVCRSWNDFHACASRVLSGCPEEAAAVWESLQQEARRAPHPDNLHILCGAPVSVRERIAGPETNQETLRATA
notes: also called mouse CPG15-2
B2: His-tagged CPG15-2 (protein, not shown: small tags and cut ends)
chain: B1 chain

Key:
CPG15 [1] = molecular target: T1, CPG15; assay: non-reducing SDS-PAGE of whole cell extracts of transfected HEK293T cells
CPG15 [2] = molecular target: T1, CPG15; assay: SDS-PAGE of whole cell lysates under reducing or non-reducing conditions, FIG. 4A
FLAG-tagged CPG15 = molecular target: T2, FLAG-tagged CPG15; assay: co-immunoprecipitation from transfected HEK293T cell lysate: anti-FLAG IP, anti-His Western blot

Row | Binder | binding (CPG15 [1]) | binding (CPG15 [2]) | binding (FLAG-tagged CPG15)
1 | B1 | binds | binds | –
2 | B2 | – | – | binds
